## Results of single-concentration screens

Sequences of proteins named here, by UniProt entry; tags and fusion partners are left off. Residues count along the entry.
UniProt P9WPC5, whole entry: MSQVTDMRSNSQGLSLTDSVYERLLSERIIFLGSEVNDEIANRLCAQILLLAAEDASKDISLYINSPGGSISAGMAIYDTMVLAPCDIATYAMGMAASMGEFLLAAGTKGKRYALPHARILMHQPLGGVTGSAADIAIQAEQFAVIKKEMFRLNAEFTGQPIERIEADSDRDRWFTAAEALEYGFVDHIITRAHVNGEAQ
UniProt P9WPC3, whole entry partner: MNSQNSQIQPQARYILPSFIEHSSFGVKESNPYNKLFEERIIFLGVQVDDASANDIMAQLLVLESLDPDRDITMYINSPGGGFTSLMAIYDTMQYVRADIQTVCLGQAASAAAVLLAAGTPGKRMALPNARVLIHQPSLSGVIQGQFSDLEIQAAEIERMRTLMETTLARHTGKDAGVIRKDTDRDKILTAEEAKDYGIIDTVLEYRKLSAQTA
UniProt Q8IDJ8, 1-583: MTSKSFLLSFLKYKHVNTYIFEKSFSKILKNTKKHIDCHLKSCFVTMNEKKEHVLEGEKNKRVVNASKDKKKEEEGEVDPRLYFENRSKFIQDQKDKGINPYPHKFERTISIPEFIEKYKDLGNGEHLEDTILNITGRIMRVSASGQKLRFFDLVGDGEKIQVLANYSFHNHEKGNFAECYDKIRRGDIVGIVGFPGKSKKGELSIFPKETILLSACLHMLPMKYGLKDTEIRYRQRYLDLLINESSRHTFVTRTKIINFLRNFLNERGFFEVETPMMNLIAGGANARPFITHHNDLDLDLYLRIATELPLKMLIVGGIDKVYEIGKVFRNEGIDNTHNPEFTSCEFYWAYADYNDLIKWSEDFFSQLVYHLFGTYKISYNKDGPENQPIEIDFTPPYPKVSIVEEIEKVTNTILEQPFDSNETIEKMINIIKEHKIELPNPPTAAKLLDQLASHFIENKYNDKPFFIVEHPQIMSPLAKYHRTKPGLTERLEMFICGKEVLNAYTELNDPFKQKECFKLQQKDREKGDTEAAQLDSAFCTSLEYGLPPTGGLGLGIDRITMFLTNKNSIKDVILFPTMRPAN
UniProt P9WFT3, whole entry: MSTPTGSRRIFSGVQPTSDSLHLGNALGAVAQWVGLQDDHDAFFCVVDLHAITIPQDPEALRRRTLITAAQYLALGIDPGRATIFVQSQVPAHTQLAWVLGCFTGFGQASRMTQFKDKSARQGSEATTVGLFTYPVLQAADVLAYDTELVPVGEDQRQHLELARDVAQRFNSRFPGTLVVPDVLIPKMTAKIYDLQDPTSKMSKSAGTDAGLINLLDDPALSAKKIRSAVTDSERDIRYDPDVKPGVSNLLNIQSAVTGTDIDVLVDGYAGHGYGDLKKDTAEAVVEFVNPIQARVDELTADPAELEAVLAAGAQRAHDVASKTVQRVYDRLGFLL
UniProt A4I591, 1-473: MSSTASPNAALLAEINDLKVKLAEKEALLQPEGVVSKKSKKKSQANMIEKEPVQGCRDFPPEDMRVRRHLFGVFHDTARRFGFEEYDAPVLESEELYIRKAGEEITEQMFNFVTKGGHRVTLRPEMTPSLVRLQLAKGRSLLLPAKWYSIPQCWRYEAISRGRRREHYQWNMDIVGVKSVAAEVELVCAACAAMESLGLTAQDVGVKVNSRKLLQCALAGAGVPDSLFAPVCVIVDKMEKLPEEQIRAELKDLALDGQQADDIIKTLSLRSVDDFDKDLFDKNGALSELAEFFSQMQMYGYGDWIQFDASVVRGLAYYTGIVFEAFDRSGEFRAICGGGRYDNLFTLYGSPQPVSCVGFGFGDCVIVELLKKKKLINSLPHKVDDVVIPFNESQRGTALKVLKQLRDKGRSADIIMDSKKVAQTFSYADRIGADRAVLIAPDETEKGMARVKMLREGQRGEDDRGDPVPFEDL
UniProt Q4DA54, 1-478: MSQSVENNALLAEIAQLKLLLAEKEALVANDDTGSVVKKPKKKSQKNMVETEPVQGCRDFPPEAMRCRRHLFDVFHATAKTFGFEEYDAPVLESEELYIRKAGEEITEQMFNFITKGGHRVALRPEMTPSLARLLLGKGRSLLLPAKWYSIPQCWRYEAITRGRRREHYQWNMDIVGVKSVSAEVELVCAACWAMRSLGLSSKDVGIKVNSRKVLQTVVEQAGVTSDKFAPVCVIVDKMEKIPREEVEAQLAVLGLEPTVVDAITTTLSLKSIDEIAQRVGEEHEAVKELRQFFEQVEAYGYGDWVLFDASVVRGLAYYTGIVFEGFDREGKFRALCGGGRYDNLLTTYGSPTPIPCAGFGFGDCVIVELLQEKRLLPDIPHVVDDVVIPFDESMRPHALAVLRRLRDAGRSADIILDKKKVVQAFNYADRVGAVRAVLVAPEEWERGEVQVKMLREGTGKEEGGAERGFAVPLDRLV

Measurements from “University of Dundee, Small-Polar-MMV Screening Library” (2021), ChEMBL document CHEMBL3988442.

ClpP1P2: 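ClpP1P2, Mycobacterium tuberculosis (UniProt P9WPC5 and UniProt P9WPC3). Protease assay of ClpP1P2, read by the AMC dye that it sets free. Tested at 50 µM. Direction is inferred from only a few compounds that gave an IC50; most scored high, so higher reads as stronger inhibition. Most other retested compounds had strongly negative values. Of about 69,000 compounds tested this way, about 10 (0.015%) reached 50% or more in at least one test.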
PfKRS1: 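Enzyme assay of the cytosolic lysyl-tRNA synthetase in 384-well plates, read by luminescence. Target: Lysine-tRNA ligase, Plasmodium falciparum 3D7 (UniProt Q8IDJ8). Tested at 30 µM. Direction is inferred from only a few compounds that gave an IC50; most scored high, so higher reads as stronger inhibition. About 69,000 compounds were tested under these conditions; 0.071% (about 49) showed 50% or more at least once.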
MtTrpRS: 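Tryptophan-tRNA ligase, Mycobacterium tuberculosis (UniProt P9WFT3). Enzyme assay of tryptophanyl-tRNA synthetase; the read-out is not stated. Tested at 10 µM. Direction is not recorded; retested compounds ran higher, which suggests that high means inhibition. About 65,000 compounds were tested under these conditions; 0.098% (about 64) showed 50% or more at least once.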
LiHisRS: 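Enzyme assay of histidyl-tRNA synthetase; the read-out is not stated. Target: Histidine-tRNA ligase, Leishmania infantum (UniProt A4I591). Tested at 30 µM. Direction is inferred from retests: higher values go with stronger inhibition. The assay is labelled LdHisRS but filed under L. infantum. Size under these conditions: about 69,000 compounds, about 410 of them at 50% or above in at least one test.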
TcHisRS: 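Histidine-tRNA ligase, Trypanosoma cruzi CL Brener (UniProt Q4DA54). Enzyme assay of histidyl-tRNA synthetase; the read-out is not stated. Compounds at 30 µM. Higher reads as stronger inhibition (inferred: compounds with an IC50 in retests scored well above the rest). About 69,000 compounds were tested under these conditions; 0.045% (about 31) showed 50% or more at least once.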
Leishmania in macrophages: 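Cell assay of Leishmania donovani living inside macrophages; the read-out is not stated. Concentration: 30 µM. Higher reads as stronger inhibition (inferred: compounds with an IC50 in retests scored well above the rest). Of about 69,000 compounds tested this way, about 1,000 (1.5%) reached 50% or more in at least one test.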

Results are given as percent effect.
The record does not define 0% and 100%; most values in the screen are far below 50% and negative numbers occur (in some assays of this library far below -100).
This is an unselected part of the compounds tested.
Two or more numbers in one place are separate tests of the same structure; such repeats can differ widely.
A dash means the value is not listed here; it may have been measured.

SMILES,ClpP1P2,PfKRS1,MtTrpRS,LiHisRS,TcHisRS,Leishmania in macrophages
O=C(O)C(F)(F)F.[H][C@@]12C[C@H](C(=O)N3CCN(C)CC3)[C@@]([H])(CN(S(=O)(=O)CCC)C1)O2,-,-,-,-,-,12.86
CN(C)CCOCc1cncc2c1CCN(C(=O)c1cscn1)C2,11.79,2.029,-,13.86,3.518,23.72
O=C(O)C(F)(F)F.O=C(O)C(F)(F)F.[H][C@@]12CN(Cc3ccncc3)CCC[C@]1(C(=O)O)CN(c1ncccn1)C2,-,-,-,-,-,6.018
COc1ncnc2c1CCN(C(=O)NCc1cccc(F)c1)CC2,-10.16,9.291,-2.913,15.52,7.595,7.946
CC(O)CN1CCN(C(=O)c2ccn(-c3ccccc3Cl)n2)CC1 (configuration not stated),-14.79,1.659,2.466,8.929,5.764,-7.229
c1cncc(CN2CCCC(Nc3ncnc4c3CCNCC4)C2)c1 (configuration not stated),-16.38,1.823,0.8653,12.99,-2.424,-41.52
CN(C)c1nc2c(c(N(C)C)n1)CCN(C(=O)CN1C[C@@H]3CC[C@H]1C3)C2,-12.13,1.617,-1.49,19.35,17.24,-
OC(CNCCn1cccn1)COc1ccc(F)cc1 (configuration not stated),-4.216,2.497,-3.431,14.53,3.333,20.47
O=C(O)C(F)(F)F.[H][C@]12CCC[C@@]1(COCc1ccccn1)CN(S(=O)(=O)C1CC1)C2,-,-,-,-,-,2.791
CCOCC(=O)N1CCC[C@]2(C[C@@H](OCc3ccncc3)CO2)C1,-5.017,7.019,-0.8364,16.67,2.488,21.43
Cc1ccc(NC(=O)Cn2ncc(SCC(N)=O)c(Cl)c2=O)c(F)c1,-1.145,4.376,2.81,25.64,1.205,27.7 & 47.3
NC(=O)N1CCCC(C(=O)NCc2noc(Cc3ccccc3)n2)C1 (configuration not stated),-11.48,2.884,0.2075,10,9.639,14.15
OCCNc1nccc(-c2cn3nccc3nc2C2CCCCC2)n1,-2.185,0.5831,-,8.571,4.52,0.3407 & 20.54
COCC1c2c(cnn2C)CCN1C(=O)c1ccc2c(c1)OCO2 (configuration not stated),3.539,-1.154,1.098,30,0,19.36
[H][C@]12CC[C@]([H])(CN(CC(=O)N(C)C)C1)N(C(=O)Cc1ccccc1Cl)C2,-,-,-,-,-,-6.677
Cc1cc(C2CCCN(Cc3nnc(Cc4ccccc4)o3)C2)n[nH]1 (configuration not stated),-6.546,6.853,0.07128,15,0.8696,0.9765
O=C(O)COc1ccc(Cl)cc1CN1CCC2(CCNCC2)CC1,3.773,-0.837,3.532,15.49,3.185,22.23
O=C(COc1ccc(F)cc1)N1CCO[C@H]2[C@@H](OCC3CC3)CC[C@@H]21,1.164,4.113,-,19.09,11.64,-
Cc1cnn(CCNCc2ccccc2C#N)c1,0.9745,-3.886,0.09717,-3.077,1.149,-23.42
Cc1cnc(C(=O)NC(COCC(C)C)c2ccco2)cn1 (configuration not stated),-34.11,0.4164,-2.966,6.14,-1.453,16.45
Cc1cnc(CN(Cc2ccc(Cl)s2)C2CCN(C)C2)o1 (configuration not stated),0.2451,1.95,-0.9804,17.95,-19.28,41.1 & -17.87
O=C(NCCc1csc(N2CCCC2)n1)N(C1CCCC1)C1CC1,-20.99,0.8009,-5.329,33.98,14.52,17.62
O=C([C@H]1CN(Cc2ccncc2)C[C@H]2OCC[C@@H]12)N1CCCCO1,-7.773,1.326,-2.138,19.44,1.493,-
COc1c(CNCc2cccc(CN3CCOCC3)c2)c(C)nn1C,3.241,-0.1244,-3.385,10.67,4.891,20.17
CN1CCN(C2CCN(Cc3nc(-c4ccoc4)no3)CC2)C1=O,-6.898,0.2762,4.284,15.65,4.598,-14.38
CC(C)c1nnc(CN2CCCC3(CC2)CN(C)C(=O)O3)o1 (configuration not stated),-11.29,2.137,2.252,-9.677,-0.8772,24.7
c1ccc2[nH]c(C3CCN(Cc4noc(C5CC5)n4)CC3)cc2c1,-3.996,4.508,-2.579,21.92,3.158,10.71
c1cncc(-c2noc(CN3CCCC3Cn3cccn3)n2)c1 (configuration not stated),-44.75,1.013,-8.999,27.59,21.47,8.393
[H][C@@]12CCN(Cc3nccs3)C[C@@]1([H])O[C@@H](c1ccncn1)C2,-,-,-,-,-,14.45
CCn1cc(NC(=O)NCc2ccc(CN3CCOCC3)cc2)cn1,-0.9093,5.233,3.155,6.25,8.745,9.437
N#Cc1cccc(CN2CCCC2Cn2cncn2)c1 (configuration not stated),-9.534,2.408,0.09633,3.665,4.813,26.04
C1CC(c2nnc(CN3CCCC3c3noc(C4CC4)n3)o2)C1 (configuration not stated),-35.29,-1.105,-3.483,16.51,7.872,4.515
Cc1nnn2c1COCC(CNC(=O)c1cnoc1C)C2 (configuration not stated),-9.756,2.571,1.044,-111,-44.55,-12.47
O=C(C1=CCCCC1)N1CCO[C@H]2[C@H](Oc3ccccn3)CC[C@@H]21,-2.382,1.125,1.302,25.71,1.961,-
O=C(Cc1ccc(S(=O)(=O)C(F)F)cc1)N1CCC1,4.436,1.122,-0.8576,9.402,3.333,21.87
Cl.c1nc(N2CCOCC2)sc1-c1cncn1CCCN1CCCCC1,-,-,-,-,-,35.44
O=C(Cc1ccccc1F)NCC1CCN(CCc2ccccc2)C1 (configuration not stated),-11.4,8.277,-2.7,-5.128,2.809,-11.75
CCc1nc(CCNc2ccc(S(N)(=O)=O)cc2C#N)cs1,-13.77,3.734,2.451,28.95,0.5848,-13.27
NS(=O)(=O)c1ccc(C(=O)N2CCCC2c2ccccc2)o1 (configuration not stated),-19.19,0.3444,-5.649,6.25,2.312,16.94
O=C1N(Cc2cccc(F)c2F)CCCC1(O)CNCC1CCCCC1 (configuration not stated),-4.651,-0.2979,-2.825,6.061,5.435,12.03
CN1CCC(NC(=O)CC2CN(Cc3ccccc3)CCO2)CC1 (configuration not stated),-13.21,9.742,-0.06456,20,-4.933,27.32
COc1cccc(Cn2c(C3CCNCC3)cc3cccnc32)c1.Cl,-,-,-,-,-,38.43

Some entries from above, unchanged:

{"smiles": "c1cncc(-c2noc(CN3CCCC3Cn3cccn3)n2)c1", "stereo": "configuration not stated", "ClpP1P2": -44.75, "PfKRS1": 1.013, "MtTrpRS": -8.999, "LiHisRS": 27.59, "TcHisRS": 21.47, "Leishmania in macrophages": 8.393}
{"smiles": "CN1CCC(NC(=O)CC2CN(Cc3ccccc3)CCO2)CC1", "stereo": "configuration not stated", "ClpP1P2": -13.21, "PfKRS1": 9.742, "MtTrpRS": -0.06456, "LiHisRS": 20, "TcHisRS": -4.933, "Leishmania in macrophages": 27.32}
{"smiles": "N#Cc1cccc(CN2CCCC2Cn2cncn2)c1", "stereo": "configuration not stated", "ClpP1P2": -9.534, "PfKRS1": 2.408, "MtTrpRS": 0.09633, "LiHisRS": 3.665, "TcHisRS": 4.813, "Leishmania in macrophages": 26.04}
{"smiles": "O=C(COc1ccc(F)cc1)N1CCO[C@H]2[C@@H](OCC3CC3)CC[C@@H]21", "ClpP1P2": 1.164, "PfKRS1": 4.113, "LiHisRS": 19.09, "TcHisRS": 11.64}
{"smiles": "COCC1c2c(cnn2C)CCN1C(=O)c1ccc2c(c1)OCO2", "stereo": "configuration not stated", "ClpP1P2": 3.539, "PfKRS1": -1.154, "MtTrpRS": 1.098, "LiHisRS": 30, "TcHisRS": 0, "Leishmania in macrophages": 19.36}